These are yes or no findings as the source states them, for the method shown. In cells and extracts the contact can be indirect. Some results given as binding are weak or reduced against the parent protein; the word gives no strength. Sequences can lack the tags named with a protein.

Sequences of proteins named here, by UniProt entry; tags and fusion partners are left off.
UniProt O75925: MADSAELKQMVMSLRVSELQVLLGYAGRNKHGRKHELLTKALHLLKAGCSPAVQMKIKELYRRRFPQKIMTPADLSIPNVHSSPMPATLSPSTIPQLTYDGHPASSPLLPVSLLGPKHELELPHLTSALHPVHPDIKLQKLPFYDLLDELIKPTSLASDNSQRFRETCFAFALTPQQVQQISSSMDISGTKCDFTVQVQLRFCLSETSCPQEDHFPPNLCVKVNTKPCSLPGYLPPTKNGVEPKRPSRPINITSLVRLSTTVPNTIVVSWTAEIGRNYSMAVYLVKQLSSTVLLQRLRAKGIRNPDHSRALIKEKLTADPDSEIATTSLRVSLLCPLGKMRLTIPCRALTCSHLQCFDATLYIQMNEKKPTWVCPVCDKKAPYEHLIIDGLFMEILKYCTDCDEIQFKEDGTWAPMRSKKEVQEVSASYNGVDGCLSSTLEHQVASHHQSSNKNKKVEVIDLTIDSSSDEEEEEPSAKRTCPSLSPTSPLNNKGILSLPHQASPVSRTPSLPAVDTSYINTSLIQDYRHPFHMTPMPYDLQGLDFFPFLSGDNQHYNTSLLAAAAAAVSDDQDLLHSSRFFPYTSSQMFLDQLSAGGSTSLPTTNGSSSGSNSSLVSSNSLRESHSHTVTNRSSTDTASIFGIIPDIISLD

For assay [1], the target named is T1, GFP-tagged DNA polymerase η (Pol η) (human) (UniProt Q9Y253).
T1 sequence: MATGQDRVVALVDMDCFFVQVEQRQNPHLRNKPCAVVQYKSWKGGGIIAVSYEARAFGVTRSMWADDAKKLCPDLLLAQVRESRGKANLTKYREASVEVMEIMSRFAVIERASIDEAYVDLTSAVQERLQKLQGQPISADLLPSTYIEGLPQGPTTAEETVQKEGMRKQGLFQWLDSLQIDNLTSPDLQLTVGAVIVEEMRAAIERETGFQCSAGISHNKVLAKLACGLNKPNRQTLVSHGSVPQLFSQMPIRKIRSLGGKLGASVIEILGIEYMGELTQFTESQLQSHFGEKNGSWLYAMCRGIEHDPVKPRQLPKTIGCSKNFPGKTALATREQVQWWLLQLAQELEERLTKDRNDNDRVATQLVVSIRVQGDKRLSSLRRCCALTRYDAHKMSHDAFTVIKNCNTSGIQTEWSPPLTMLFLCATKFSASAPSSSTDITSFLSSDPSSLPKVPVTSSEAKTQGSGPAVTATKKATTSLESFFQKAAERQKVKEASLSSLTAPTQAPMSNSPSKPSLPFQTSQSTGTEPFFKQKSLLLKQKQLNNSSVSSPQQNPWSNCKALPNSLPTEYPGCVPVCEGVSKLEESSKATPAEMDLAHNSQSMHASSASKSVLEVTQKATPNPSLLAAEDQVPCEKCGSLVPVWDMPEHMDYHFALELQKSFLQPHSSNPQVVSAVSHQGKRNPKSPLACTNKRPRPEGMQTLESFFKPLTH
The assay can be described thus: co-IP; GFP IP (GFP-Trap agarose beads) under native conditions from lysates of U2OS/GFP-Pol η cells left untreated or exposed to UV; immunoblotting; parental U2OS cells as control.

Assay [2] addresses T2, GFP-tagged DNA polymerase η (Pol η) (human), Q9Y253.
T2 chain: T1 sequence
The description is as above. The following applies: remark: other sources report otherwise.

With “protein inhibitor of activated STAT 1 (PIAS1) (from UniProt O75925 1-651)”, in assay [1], the binding result is “binds”.

B1: PIAS4, Q8N2W9 1-510 (protein)
chain: MAAELVEAKNMVMSFRVSDLQMLLGFVGRSKSGLKHELVTRALQLVQFDCSPELFKKIKELYETRYAKKNSEPAPQPHRPLDPLTMHSTYDRAGAVPRTPLAGPNIDYPVLYGKYLNGLGRLPAKTLKPEVRLVKLPFFNMLDELLKPTELVPQNNEKLQESPCIFALTPRQVELIRNSRELQPGVKAVQVVLRICYSDTSCPQEDQYPPNIAVKVNHSYCSVPGYYPSNKPGVEPKRPCRPINLTHLMYLSSATNRITVTWGNYGKSYSVALYLVRQLTSSELLQRLKTIGVKHPELCKALVKEKLRLDPDSEIATTGVRVSLICPLVKMRLSVPCRAETCAHLQCFDAVFYLQMNEKKPTWMCPVCDKPAPYDQLIIDGLLSKILSECEDADEIEYLVDGSWCPIRAEKERSCSPQGAILVLGPSDANGLLPAPSVNGSGALGSTGGGGPVGSMENGKPGADVVDLTLDSSSSSEDEEEEEEEEEDEDEEGPRPKRRCPFQKGLVPAC
Take B1: the binding entry in assay [2] is “no binding”.

For the origin of these results see publication PMC7307195.
